Data: paper doi:10.1101/2020.05.07.083568

Target: 3HA-BioID2-TbUnc119 (Trypanosoma brucei) (UniProt Q586Q9)
Test: proximity labelling

B1: TbSMP1-1 (endogenous) (protein, UniProt Q4GYZ8 1-123)
chain: MGCGGSKTSTVEFINGQPTVQGDEIVKGFNEGNGLLFRIVKTRAGRWAYYNDTLDYDMHVKVTFSEDCRIKALGQTRLEKLESGESVATVVVKPCATELFIEGHVNGYKAKMDAIPITDGDRQ
modifications: N-terminal myristoylation site (G2)
  binding: binds

B2: kinetoplastid membrane proteins, KMP-11 (protein, UniProt P69301 1-92)
chain: MATTYEEFAAKLDRLDAEFAKKMEEQNKRFFADKPDEATLSPEMKEHYEKFEKMIQEHTDKFNKKMREHSEHFKAKFAELLEQQKNAQFPGK
  binding: binds

These are yes or no findings as the source states them, for the method shown. Binding seen in cells or lysates may run through a third protein. These calls come from enrichment with a bait or labelling near it, and not all partners need be listed.
